Data as given in PubChem BioAssay AID1259304 (Sanger Institute, 2017)

Purpose: 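Kinase partners that kill colorectal cancer cells together with three anchor drugs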 (secondary deconvolution rescreen of primary hits)
Cell system: HT115 human colorectal cancer cells
Knock-down reagent: single siRNA against human genes
Challenge: anchor drugs BYL719 at 1 µM, cetuximab at 5 µg/ml or trametinib at 10 nM, each set against DMSO vehicle
Measured: 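Replicate-averaged viability as a fraction of non-targeting control, with a drug-siRNA synergy score from joint versus separate effects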
Direction: synergy score with BYL719: higher = stronger synthetic lethal interaction with BYL719; synergy score with cetuximab: higher = stronger synthetic lethal interaction with cetuximab; synergy score with trametinib: higher = stronger synthetic lethal interaction with trametinib
Call rule: 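Called active when the synergy score is above 0.10 for any of BYL719, cetuximab or trametinib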
Calls: active = synergy with at least one anchor drug; inactive = no synergy with any anchor drug
The deposit covers 160 reagents; shown is an unselected part. In the full data, 88 (55%) were called active. 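Four siRNAs per gene, each called on its own in one cell line; calls are not confirmed gene-level hits.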 Entries without a mark were called inactive. Reagents against one gene are numbered here. Not all columns of the deposit are shown. The record does not give: the amount of reagent, the time to read-out.

gene | reagent | synergy score with BYL719 | synergy score with cetuximab | synergy score with trametinib
PIM1 (GeneID 5292) | 1 | 0.0218 | 0.0668 | 0.0311
PIM1 (GeneID 5292) | 2 | 0.0871 (active) | 0.0821 | 0.208
PIM1 (GeneID 5292) | 3 | -0.0105 | -0.142 | 0.0541
PIM1 (GeneID 5292) | 4 | -0.108 (active) | -0.0665 | 0.11
STK36 (GeneID 27148) | 1 | 0.0563 (active) | 0.056 | 0.264
STK36 (GeneID 27148) | 2 | -0.00653 (active) | 0.0354 | 0.25
STK36 (GeneID 27148) | 3 | 0.0221 (active) | 0.0548 | 0.165
STK36 (GeneID 27148) | 4 | 0.0266 | -0.0711 | 0.0783
CDKN2D (GeneID 1032) | 1 | 0.113 (active) | 0.218 | 0.36
CDKN2D (GeneID 1032) | 2 | 0.069 (active) | 0.127 | 0.117
CDKN2D (GeneID 1032) | 3 | 0.0808 (active) | 0.0147 | 0.34
CDKN2D (GeneID 1032) | 4 | -0.0749 (active) | 0.0273 | 0.112
SYK (GeneID 6850) | 1 | 0.0424 | -0.0674 | 0.0771
SYK (GeneID 6850) | 2 | -0.078 | 0.0817 | 0.0911
SYK (GeneID 6850) | 3 | 0.0911 (active) | -0.0429 | 0.257
SYK (GeneID 6850) | 4 | 0.0362 | -0.116 | 0.0755
IKBKB (GeneID 3551) | 1 | -0.124 | 0.011 | 0.0441
IKBKB (GeneID 3551) | 2 | 0.0191 (active) | 0.0718 | 0.124
IKBKB (GeneID 3551) | 3 | -0.00469 | -0.136 | 0.0306
IKBKB (GeneID 3551) | 4 | 0.0255 | -0.0176 | 0.0252
COASY (GeneID 80347) | 1 | -0.102 | -0.0586 | -0.00425
COASY (GeneID 80347) | 2 | -0.00349 | -0.085 | 0.0552
COASY (GeneID 80347) | 3 | -0.122 (active) | 0.161 | 0.124
COASY (GeneID 80347) | 4 | -0.0244 | 0.00771 | 0.0663
AK2 (GeneID 204) | 1 | -0.0944 (active) | 0.13 | 0.109
AK2 (GeneID 204) | 2 | 0.0222 (active) | 0.0984 | 0.307
AK2 (GeneID 204) | 3 | -0.138 | -0.146 | 0.049
AK2 (GeneID 204) | 4 | 0.0181 (active) | 0.192 | 0.368
PINK1 (GeneID 65018) | 1 | -0.122 | -0.0375 | 0.0505
PINK1 (GeneID 65018) | 2 | 0.151 (active) | 0.147 | 0.416
PINK1 (GeneID 65018) | 3 | 0.0515 (active) | 0.235 | 0.279
PINK1 (GeneID 65018) | 4 | -0.0437 (active) | -0.0163 | 0.19
CHD4 (GeneID 1108) | 1 | -0.00933 | -0.0213 | 0.00292
CHD4 (GeneID 1108) | 2 | -0.206 | -0.0837 | -0.106
CHD4 (GeneID 1108) | 3 | -0.154 | -0.0884 | -0.0733
CHD4 (GeneID 1108) | 4 | -0.00965 | 0.0431 | 0.0506
GRK5 (GeneID 2869) | 1 | 0.00544 (active) | 0.0783 | 0.283
GRK5 (GeneID 2869) | 2 | -0.0448 | -0.0624 | 0.0473
GRK5 (GeneID 2869) | 3 | 0.0179 (active) | -0.0802 | 0.264
GRK5 (GeneID 2869) | 4 | 0.056 (active) | 0.105 | 0.148
SF3B1 (GeneID 23451) | 1 | -0.0134 | -0.0159 | -0.0241
SF3B1 (GeneID 23451) | 2 | -0.0328 | -0.104 | -0.0545
SF3B1 (GeneID 23451) | 3 | -0.0841 | -0.116 | -0.0126
SF3B1 (GeneID 23451) | 4 | -0.0944 | -0.0726 | -0.022
GUCY2D (GeneID 3000) | 1 | -0.0839 (active) | 0.0273 | 0.258
GUCY2D (GeneID 3000) | 2 | 0.119 (active) | 0.165 | 0.261
GUCY2D (GeneID 3000) | 3 | 0.0454 (active) | 0.0331 | 0.339
GUCY2D (GeneID 3000) | 4 | -0.106 (active) | -0.0539 | 0.124
PRAG1 (GeneID 157285) | 1 | -0.046 (active) | -0.0169 | 0.194
PRAG1 (GeneID 157285) | 2 | 0.482 (active) | -0.0446 | 0.0558
PRAG1 (GeneID 157285) | 3 | 0.055 | -0.0445 | 0.059
PRAG1 (GeneID 157285) | 4 | 0.0641 (active) | 0.12 | 0.278
